Publication doi:10.1101/2025.06.30.662483
Results are given in words; binding and its absence hold for the method and conditions named. In cells and extracts the contact can be indirect. Some entries that bind do so weakly or less than the wild type. For some of these results: Sequences can lack the tags named with a protein.

The chains behind the UniProt entries cited, without tags or fusion partners. Where a name states a change or a piece, a line headed by the entry shows the natural chain unless it says otherwise.
UniProt Q92793: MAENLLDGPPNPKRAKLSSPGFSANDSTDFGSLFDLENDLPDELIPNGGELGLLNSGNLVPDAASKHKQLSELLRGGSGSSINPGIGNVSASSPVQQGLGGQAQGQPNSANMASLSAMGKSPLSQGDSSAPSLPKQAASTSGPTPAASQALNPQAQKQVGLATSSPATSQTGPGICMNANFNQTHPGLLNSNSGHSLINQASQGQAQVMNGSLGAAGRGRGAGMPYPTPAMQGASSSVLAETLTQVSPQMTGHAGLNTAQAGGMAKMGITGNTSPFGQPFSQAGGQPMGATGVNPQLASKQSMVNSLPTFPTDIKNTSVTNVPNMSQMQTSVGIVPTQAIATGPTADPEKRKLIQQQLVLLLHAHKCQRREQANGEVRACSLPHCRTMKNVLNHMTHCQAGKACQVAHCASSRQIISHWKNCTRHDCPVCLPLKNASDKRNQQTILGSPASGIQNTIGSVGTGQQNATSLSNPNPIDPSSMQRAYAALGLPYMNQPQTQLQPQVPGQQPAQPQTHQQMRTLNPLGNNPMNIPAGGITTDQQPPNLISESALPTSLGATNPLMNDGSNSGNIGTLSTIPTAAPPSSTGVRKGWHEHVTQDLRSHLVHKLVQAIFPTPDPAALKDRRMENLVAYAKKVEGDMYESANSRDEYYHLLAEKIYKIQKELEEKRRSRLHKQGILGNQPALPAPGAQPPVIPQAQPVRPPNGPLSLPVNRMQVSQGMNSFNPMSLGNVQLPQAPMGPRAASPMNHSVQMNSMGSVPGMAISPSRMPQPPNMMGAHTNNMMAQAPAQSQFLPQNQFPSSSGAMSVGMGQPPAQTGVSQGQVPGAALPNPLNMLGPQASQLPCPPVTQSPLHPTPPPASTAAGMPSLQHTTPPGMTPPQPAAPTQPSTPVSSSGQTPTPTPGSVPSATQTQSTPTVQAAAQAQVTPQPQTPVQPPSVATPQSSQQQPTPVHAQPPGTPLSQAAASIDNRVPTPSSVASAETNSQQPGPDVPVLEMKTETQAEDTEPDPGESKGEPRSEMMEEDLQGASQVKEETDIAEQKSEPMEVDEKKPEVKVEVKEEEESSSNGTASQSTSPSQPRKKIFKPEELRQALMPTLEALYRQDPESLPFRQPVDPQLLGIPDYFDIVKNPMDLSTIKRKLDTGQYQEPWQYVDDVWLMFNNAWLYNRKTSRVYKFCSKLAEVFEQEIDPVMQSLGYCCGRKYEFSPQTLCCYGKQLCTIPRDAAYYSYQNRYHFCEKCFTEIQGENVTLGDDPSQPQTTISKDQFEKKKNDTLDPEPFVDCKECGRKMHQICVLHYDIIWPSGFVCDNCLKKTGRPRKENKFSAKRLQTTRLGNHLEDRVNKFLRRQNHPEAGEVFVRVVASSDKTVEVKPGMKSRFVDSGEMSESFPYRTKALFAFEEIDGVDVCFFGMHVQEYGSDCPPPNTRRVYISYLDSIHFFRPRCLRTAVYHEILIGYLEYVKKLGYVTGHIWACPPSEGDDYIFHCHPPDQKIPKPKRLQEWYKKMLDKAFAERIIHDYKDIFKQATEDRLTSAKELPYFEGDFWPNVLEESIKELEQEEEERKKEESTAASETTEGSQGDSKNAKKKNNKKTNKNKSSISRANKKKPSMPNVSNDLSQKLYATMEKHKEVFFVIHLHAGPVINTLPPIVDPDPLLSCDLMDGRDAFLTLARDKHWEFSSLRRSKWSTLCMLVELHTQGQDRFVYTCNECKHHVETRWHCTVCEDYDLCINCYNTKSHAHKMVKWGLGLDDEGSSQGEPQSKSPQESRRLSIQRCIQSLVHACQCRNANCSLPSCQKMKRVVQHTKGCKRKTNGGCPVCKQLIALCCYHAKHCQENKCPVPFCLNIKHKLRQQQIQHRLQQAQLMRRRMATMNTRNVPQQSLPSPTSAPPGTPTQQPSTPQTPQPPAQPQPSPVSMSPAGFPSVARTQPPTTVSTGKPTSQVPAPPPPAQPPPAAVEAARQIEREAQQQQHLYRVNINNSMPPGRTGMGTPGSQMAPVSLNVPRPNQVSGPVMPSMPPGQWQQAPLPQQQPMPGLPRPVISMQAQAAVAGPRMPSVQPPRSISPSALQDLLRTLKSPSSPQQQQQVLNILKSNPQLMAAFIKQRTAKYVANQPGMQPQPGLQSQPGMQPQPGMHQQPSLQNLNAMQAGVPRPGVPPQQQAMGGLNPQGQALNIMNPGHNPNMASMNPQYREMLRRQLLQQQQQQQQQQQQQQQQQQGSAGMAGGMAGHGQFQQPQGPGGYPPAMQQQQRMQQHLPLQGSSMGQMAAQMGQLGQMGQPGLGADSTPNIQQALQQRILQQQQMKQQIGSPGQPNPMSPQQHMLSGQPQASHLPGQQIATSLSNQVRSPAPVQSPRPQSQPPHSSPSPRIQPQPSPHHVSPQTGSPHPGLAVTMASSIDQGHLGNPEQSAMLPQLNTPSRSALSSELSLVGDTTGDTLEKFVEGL
UniProt Q09472: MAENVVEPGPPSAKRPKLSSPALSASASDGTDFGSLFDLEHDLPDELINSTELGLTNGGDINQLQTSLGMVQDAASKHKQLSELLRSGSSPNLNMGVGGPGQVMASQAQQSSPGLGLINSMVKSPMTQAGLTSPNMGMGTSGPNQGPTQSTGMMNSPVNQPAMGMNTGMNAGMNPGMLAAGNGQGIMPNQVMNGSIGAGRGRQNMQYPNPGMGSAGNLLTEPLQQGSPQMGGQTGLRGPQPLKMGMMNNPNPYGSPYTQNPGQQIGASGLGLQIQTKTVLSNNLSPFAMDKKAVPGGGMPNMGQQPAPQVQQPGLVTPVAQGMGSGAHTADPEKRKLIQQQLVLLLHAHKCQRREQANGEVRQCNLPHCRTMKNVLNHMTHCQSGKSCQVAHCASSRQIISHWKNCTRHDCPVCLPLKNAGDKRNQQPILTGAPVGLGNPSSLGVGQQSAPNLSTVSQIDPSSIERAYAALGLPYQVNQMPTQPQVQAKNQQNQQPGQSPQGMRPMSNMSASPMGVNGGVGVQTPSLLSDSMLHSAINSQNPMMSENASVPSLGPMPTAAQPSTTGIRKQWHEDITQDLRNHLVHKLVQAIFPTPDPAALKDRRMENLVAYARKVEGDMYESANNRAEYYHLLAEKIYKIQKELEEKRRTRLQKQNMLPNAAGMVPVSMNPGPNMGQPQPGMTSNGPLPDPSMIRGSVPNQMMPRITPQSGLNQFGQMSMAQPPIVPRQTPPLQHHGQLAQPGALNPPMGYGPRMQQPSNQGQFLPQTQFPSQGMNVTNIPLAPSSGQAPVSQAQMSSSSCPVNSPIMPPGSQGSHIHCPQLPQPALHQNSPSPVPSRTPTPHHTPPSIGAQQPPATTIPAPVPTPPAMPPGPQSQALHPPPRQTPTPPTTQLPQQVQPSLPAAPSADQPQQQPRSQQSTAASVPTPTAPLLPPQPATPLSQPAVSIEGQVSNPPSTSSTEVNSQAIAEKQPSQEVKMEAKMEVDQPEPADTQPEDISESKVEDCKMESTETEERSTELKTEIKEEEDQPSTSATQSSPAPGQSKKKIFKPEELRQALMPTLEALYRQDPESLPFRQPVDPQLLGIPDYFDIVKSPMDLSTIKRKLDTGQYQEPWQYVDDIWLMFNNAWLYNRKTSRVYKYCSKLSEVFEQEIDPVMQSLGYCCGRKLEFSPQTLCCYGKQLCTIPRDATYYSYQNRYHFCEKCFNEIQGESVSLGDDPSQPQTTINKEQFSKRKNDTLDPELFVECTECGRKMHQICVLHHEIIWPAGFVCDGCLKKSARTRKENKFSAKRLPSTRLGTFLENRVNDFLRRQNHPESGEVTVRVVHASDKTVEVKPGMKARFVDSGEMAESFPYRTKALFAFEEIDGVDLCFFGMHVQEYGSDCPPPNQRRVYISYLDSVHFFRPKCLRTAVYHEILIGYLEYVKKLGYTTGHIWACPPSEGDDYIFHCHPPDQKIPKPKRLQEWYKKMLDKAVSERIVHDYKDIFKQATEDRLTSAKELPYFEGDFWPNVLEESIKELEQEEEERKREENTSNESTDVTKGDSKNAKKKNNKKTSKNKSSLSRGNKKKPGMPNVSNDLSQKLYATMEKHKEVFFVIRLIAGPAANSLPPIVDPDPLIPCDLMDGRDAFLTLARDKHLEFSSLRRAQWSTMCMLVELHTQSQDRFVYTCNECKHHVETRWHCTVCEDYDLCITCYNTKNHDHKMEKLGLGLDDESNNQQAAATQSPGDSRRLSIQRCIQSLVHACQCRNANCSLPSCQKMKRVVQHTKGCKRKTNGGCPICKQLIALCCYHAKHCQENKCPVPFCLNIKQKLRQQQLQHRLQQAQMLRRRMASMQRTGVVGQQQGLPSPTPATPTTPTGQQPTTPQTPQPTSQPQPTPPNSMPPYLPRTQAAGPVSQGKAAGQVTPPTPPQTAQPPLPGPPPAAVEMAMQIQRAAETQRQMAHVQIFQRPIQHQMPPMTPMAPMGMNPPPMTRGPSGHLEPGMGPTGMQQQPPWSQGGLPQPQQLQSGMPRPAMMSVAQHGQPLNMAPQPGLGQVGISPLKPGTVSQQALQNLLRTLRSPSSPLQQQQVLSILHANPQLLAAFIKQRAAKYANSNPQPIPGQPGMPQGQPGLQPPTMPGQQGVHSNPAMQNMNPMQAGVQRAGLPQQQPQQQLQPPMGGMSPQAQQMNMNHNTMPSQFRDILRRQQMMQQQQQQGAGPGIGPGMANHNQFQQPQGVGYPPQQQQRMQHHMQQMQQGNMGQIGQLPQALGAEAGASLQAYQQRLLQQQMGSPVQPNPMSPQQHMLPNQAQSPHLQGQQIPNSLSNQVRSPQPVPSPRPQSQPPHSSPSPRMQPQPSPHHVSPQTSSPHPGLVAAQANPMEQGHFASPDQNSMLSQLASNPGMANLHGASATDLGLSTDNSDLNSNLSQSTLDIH

What was measured:
[1] = biological target: T1, GFP-tagged WT-PARP7 (human) (UniProt Q7Z3E1); assay: co-IP
T1 sequence: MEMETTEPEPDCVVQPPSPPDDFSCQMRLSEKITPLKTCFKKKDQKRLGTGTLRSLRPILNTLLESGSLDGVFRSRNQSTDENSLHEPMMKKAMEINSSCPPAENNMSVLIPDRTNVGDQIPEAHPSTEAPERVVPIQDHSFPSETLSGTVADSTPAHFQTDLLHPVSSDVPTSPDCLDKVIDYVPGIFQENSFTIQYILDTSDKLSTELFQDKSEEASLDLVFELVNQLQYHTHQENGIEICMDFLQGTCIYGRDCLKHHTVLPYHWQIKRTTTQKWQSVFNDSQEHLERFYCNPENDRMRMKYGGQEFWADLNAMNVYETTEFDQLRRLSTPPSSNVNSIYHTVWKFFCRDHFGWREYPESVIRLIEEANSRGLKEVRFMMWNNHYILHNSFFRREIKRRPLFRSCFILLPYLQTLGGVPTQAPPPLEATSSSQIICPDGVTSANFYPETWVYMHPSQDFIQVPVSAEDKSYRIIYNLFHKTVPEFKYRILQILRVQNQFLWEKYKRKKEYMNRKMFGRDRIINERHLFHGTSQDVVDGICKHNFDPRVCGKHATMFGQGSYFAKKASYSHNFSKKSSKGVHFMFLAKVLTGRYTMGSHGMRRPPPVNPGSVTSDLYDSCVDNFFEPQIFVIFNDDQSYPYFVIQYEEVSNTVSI

[2] = biological target: GFP-tagged ΔKBR3-PARP7 (human) (UniProt Q7Z3E1); assay: co-IP

Substance	binding [1]	binding [2]
CBP (CREB-binding protein) (from UniProt Q92793 1-2442)	binds	no binding
p300 (E1A-binding protein p300) (from UniProt Q09472 1-2414)	binds	no binding
